Measured values: patent US9745279B2, “Sirtuin activator” (TOKIWA PHYTOCHEMICAL CO., LTD., priority 2011, dated 2017)
Some of these results come from one statement about several compounds together.

Molecular target: T1, SIRT1 enzyme (Homo sapiens, UniProt Q96EB6)
T1 construct: purchased BIOMOL International (via COSMO BIO CO., LTD.) AK-555 (kit); SE-239 (enzyme)
T1 sequence (Q96EB6 1-747): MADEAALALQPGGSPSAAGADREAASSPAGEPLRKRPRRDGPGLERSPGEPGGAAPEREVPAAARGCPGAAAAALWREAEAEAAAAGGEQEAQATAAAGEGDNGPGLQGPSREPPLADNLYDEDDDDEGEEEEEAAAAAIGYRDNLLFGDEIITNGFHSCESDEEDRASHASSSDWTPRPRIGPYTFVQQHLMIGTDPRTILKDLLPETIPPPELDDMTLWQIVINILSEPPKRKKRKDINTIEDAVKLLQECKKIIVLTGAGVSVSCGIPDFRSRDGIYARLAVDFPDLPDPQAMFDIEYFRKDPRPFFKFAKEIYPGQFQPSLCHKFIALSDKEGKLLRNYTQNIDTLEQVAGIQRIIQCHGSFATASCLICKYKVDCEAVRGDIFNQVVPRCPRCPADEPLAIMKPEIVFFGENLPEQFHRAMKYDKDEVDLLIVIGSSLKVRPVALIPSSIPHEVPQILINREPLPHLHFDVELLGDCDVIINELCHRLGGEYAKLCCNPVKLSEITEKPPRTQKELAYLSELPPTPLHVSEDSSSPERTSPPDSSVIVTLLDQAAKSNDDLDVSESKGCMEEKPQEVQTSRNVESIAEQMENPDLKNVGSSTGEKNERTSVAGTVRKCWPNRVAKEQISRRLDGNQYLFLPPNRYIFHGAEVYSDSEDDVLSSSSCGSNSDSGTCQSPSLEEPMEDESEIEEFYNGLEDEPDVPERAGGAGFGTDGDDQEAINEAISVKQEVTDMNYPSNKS
Assay: SIRT1 fluorescent activity assay: sirtuin activity acceleration by polyalkoxyflavonoid compounds (Example 6)
Format: biochemical
Conditions: FIG. 8; for SIRT1 activity: low concentrations of 10 μg/mL and 2 μg/mL; for sirtuin activation activity relative to the activity of resveratrol: at 10 μg/mL
Protocol: The sirtuin activity was measured according to a protocol similar to that of Example 3.
All measurement reagents (preserved at −80° C.) were stationed on ice until use to melt the SIRT1 enzyme (SE-239) and 5× Developer II (KI-176) moderately. SIRT1 enzyme was diluted to 0.2 U/μL with an assay buffer (KI-286). Resveratrol, Compounds 1 to 5 and nobiletin (Funakoshi Co.) were used as subject samples. […] To the control was added DMSO instead of a subject sample. The substrate Fluor de Lys-SIRT1 (KI-177; 5 mM) plus a coenzyme NAD^+ (KI-282; 50 mM) was diluted with an assay buffer (KI-286) to obtain a concentration that is 3.33 folds that of the final use concentration, and used in an amount of 15 μL/well. A subject sample solution (10 μL/well), SIRT1 enzyme solution (0.2 U/μL, 5 μL/well) and an assay buffer (10 μL/well) were added to the measurement microplate and pre-incubated at 37° C. for 5 minutes. The substrate solution that was heated preliminary at 37° C. was added at 25 μL/well, then, further incubated at 37° C. for 10 minutes. Then, a reaction stop solution Developer II/2 mM nicotinamide was added at 50 μL/well, and the fluorescent probe generated from Developer II was measured (excited wave length 360 nm, fluorescent wave length 460 nm) by a fluorescent plate reader (Tecan Co., Infinite 200) within 60 minutes after the reaction stopped.

## COc1cc(OC)c2c(=O)cc(-c3ccccc3)oc2c1 [Compound 3, chrysin dimethylether]
  SIRT1 activity: Activity was observed

## COc1ccc(-c2cc(=O)c3c(OC)cc(OC)cc3o2)cc1 [Compound 1, apigenin-5,7,4′-trimethylether]
  sirtuin activation activity relative to the activity of resveratrol: ≥ 10 folds
  SIRT1 activity: Activity was observed

## COc1ccc(-c2oc3cc(OC)cc(OC)c3c(=O)c2OC)cc1 [Compound 4, 3,5,7,4′-tetramethoxyflavone]
  SIRT1 activity: Activity was observed

## COc1cc(OC)c2c(=O)c(OC)c(-c3ccc(OC)c(OC)c3)oc2c1 [Compound 2, quercetin-3,5,7,3′,4′-pentamethylether]
  sirtuin activation activity relative to the activity of resveratrol: ≥ 10 folds
  SIRT1 activity: Activity was observed
